Tests used:
[1] = 13C-NMR calibration of pH-dependent chemical shifts of OMPD in sodium phosphate buffer; assay type: physicochemical
[2] = 13C-NMR calibration of pH-dependent chemical shifts of zymonic acid in sodium phosphate buffer; assay type: physicochemical
MCF-7 tumor cells = assay: Hyperpolarized [1-13C]-pyruvate injected in MCF-7 tumor cells killed with Triton X-100, 13C-NMR of zymonic acid peaks vs pH; assay type: cell-based
[3] = 1H-NMR pH-dependent proton chemical shifts of zymonic acid; assay type: physicochemical; conditions: referenced to external standard TMS
[4] = Decay of hyperpolarized zymonic acid (T1); assay type: physicochemical
[5] = hyperpolarized, 13C-labeled, MCF-7 cells with Triton X-100

Row | SMILES | hysteresis effects in the pH-dependent chemical shift ([1]; pH-values measured in random order) | highest pH-dependent change in 13C chemical shift ([1]; range from pH 5 to pH 9) | highest pH-dependent change in chemical shift ([1]; range from pH 5 to pH 9) | hysteresis effects in the pH-dependent shift ([2]; pH adjusted with NaOH or HCl) | pH dependent change in 13C chemical shift, peak 1 (recap of FIG. 2) ([2]; thermally polarized and unlabeled zymonic acid) | pH dependent change in 13C chemical shift, peak 1 ([2]; thermally polarized, unlabeled, referenced to 13C-urea, best fit straight line) | pH dependent change in 13C chemical shift, peak 3 ([2]; thermally polarized, referenced to 13C-urea, best fit straight line) | pH dependent linear change in 13C chemical shift, two peaks (maximum) (MCF-7 tumor cells; hyperpolarized zymonic acid, FIG. 4C) | pH dependent 13C chemical shift, peak 1 (MCF-7 tumor cells; [5]) | pH dependent 13C chemical shift, peak 2 (MCF-7 tumor cells; [5]) | highest pH-dependent change in 13C chemical shift (MCF-7 tumor cells; range from pH 5 to pH 9) | pH dependent change in 1H chemical shift, peak A [3] | pH dependent change in 1H chemical shift, peak B [3] | T1 of hyperpolarized compound ([4]; 3 T) | T1 of hyperpolarized compound ([4]; 7 T)
1 | C/C(=C/C(=O)C(=O)O)C(=O)O [OMPD, (Z)-4-methyl-2-oxopent-3-enedioic acid] | did not observe hysteresis effects | ≤ 12.2 ppm | up to 12.2 ppm/pH |  |  |  |  |  |  |  |  |  |  |  | 
2 | CC1(C(=O)O)C=C(O)C(=O)O1 (stereo not drawn) [zymonic acid, 4-hydroxy-2-methyl-5-oxo-2,5-dihydrofuran-2-carboxylic acid] |  |  |  | did not observe hysteresis effects | 2.11 ppm/H | approx. 2.1 ppm/pH | approx. 1.0 ppm/pH | up to 2.35 ppm/pH | approx. 2.35 ppm/pH | approx. 1.17 ppm/pH | up to 2.35 ppm/pH | approx. −0.04 ppm/pH | approx. −0.3 ppm/pH | 40 to 50 s | ca. 20 s

Reference: patent publication US20160252532A1, “pH-Biosensors Based on Compounds Produced From Pyruvic Acid For Magnetic Resonance Imaging and Spectroscopy and Their Uses” (TECHNISCHE UNIVERSITÄT MÜNCHEN, priority 2013, published 2016)
